In patent US7968103B2, “Compositions comprising fetal hemoglobin and bacterial endotoxin and optionally additional fetal liver components” (priority 2003, dated 2011):
Some of these results come from one statement about several compounds together.

How the values were obtained:
mouse spleen cells = assay: Cytokine production by mouse spleen cells with LPS and Hb; assay type: cell-based, C57BL/6 mice; details: LPS only (200 ng/ml) or Hb only, 24 hrs
Method: (§1) Spleen cells were pooled from 3 C57BL/6 donors (8-week male). Cells were incubated in triplicate in 2 ml medium (with 10% fetal calf serum and 200 ng/ml LPS) at a concentration of 1×10^6/ml. Medium contained in addition adult or fetal (sheep) hemoglobin at the various concentrations shown. Supernatants were harvested 24 hrs later to assay in triplicate for TNFα by ELISA. […] Control cultures (no LPS, LPS only, or fetal/adult Hb only) produced levels <50 ng/ml, <70 ng/ml or <50 ng/ml respectively.
as §1, with “assay for IL-6” for “assay”, “triplicate” for “triplicate for TNFα”, “<100” for “<50”, “<120” for “<70”
In this experiment the cloned γ- and β-chain of sheep Hb were assayed as CHO extracts (20 μg/ml) together with LPS (100 ng/ml) to stimulate murine spleen cells in vitro for the production of TNFα (detection at 24 hr by ELISA) […]

human PBL = assay: TNFα production by human PBL with LPS and Hb; assay type: cell-based; details: LPS only (200 ng/ml) or Hb only, 24 hrs
Method: PBL were obtained by Ficoll-hypaque purification from volunteers. Cells were incubated in triplicate in 2 ml medium (with 10% commercial human AB serum and 200 ng/ml LPS) at a concentration of 1×10^6/ml. Medium contained in addition adult or fetal (sheep) hemoglobin at the various concentrations shown. Supernatants were harvested 24 hrs later to assay in triplicate for TNFα by ELISA. […] Control cultures (no LPS, LPS only, or fetal/adult Hb only) produced levels <50 ng/ml, <100 ng/ml or <65 ng/ml respectively.
PBL were obtained by Ficoll-hypaque purification from volunteers. Cells were incubated in 2 ml medium (with 10% commercial human AB serum). Cells were incubated in the presence/absence of 500 ng/ml adult or fetal sheep hemoglobin α- or γ-chain. Control cells were incubated in the absence of hemoglobin protein (far left of Figure). In addition, each group was further subdivided into triplicates which received no additional materials (open bars), or 200 ng/ml LPS (closed bars). Supernatants were harvested 24 hrs later to assay (in triplicate) for TNFα by ELISA. Data in panels A and B are independent studies using different volunteer donors (mean ±SD). […]

fetal Hb: purified fetal sheep hemoglobin, α and γ chains (α2γ2)
IL-6, control cultures with single agent (mouse spleen cells): < 100 ng/mL
TNFα, control cultures with single agent (mouse spleen cells): < 50 ng/mL
TNFα, control cultures with single agent (human PBL): < 65 ng/mL
